A short description of the series: general procedure: Boc solid-phase peptide synthesis; p-methylbenzhydrylamine resin (model peptides); Pam-resin (ET, BET). Particulars: whole synthesis.

Turning to human defensin, the difficulty met entry is reported as “Copious precipitation occurred during all stages of the dialysis”.

(Values after US5144006 (dated 1992).)
